Values from PubChem BioAssay AID1224826 (NIAID, 2016).
Test: 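Knock-downs that raise or lower Tnf reporter signal after endotoxin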 (primary screen). System: RAW264.7 G9 macrophages from mouse bearing reporters for p65 (GFP) and the Tnf promoter (mCherry). Knock-down reagent: siRNA pool against mouse genes, 100 nM. Timing: 16 h of LPS stimulation, after 2 days of siRNA transfection. Conditions: bacterial lipopolysaccharide (Salmonella minnesota R595), 10 ng/ml. Detection: 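Imaged Tnf reporter mCherry in nuclei, minus background, normalised per plate to the median and expressed as robust z-scores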. Reading the numbers: Tnf reporter robust z-score: higher = stronger Tnf promoter reporter signal after LPS. Rule for the call: 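Called active when robust z-score is at most -1.3, matching the median of the Tlr4 knock-down control, or over 3; control wells and wells with under 50 cells never active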. Meaning of the calls: active = Tnf reporter clearly lowered or raised; inactive = no clear change in Tnf reporter.
Here is a random part of about 17,000 deposited reagents. Of all reagents, about 1,110 (6.6%) are marked active. 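Active means lowered or raised reporter signal; replicate intensities are raw and not normalised per plate.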 A reagent listed more than once was tested more than once; the source does not tell the runs apart. Not all columns of the deposit are shown.

target gene	Tnf reporter robust z-score	fewer than 50 cells in well	activity call
Or10q1	-0.41	enough cells in well	inactive
Exog	-0.54	enough cells in well	inactive
Irf8	-1.43	enough cells in well	active
Nfasc	-0.6	enough cells in well	inactive
Or6c70	0.95	enough cells in well	inactive
Sox2	-0.89	enough cells in well	inactive
Zc3h8	-0.2	enough cells in well	inactive
Gphn	-0.62	enough cells in well	inactive
Wdr36	0.81	enough cells in well	inactive
Cdh13	-0.65	enough cells in well	inactive
Cinp	-1.39	enough cells in well	active
Cinp		fewer than 50 cells per well; well left out of calls	inactive
Rad9a	-0.08	enough cells in well	inactive
Ccdc85b	0.89	enough cells in well	inactive
Polr3b	0.51	enough cells in well	inactive
Traf1	-0.15	enough cells in well	inactive
Mbd6	-0.07	enough cells in well	inactive
Rnft2	0.67	enough cells in well	inactive
Ccdc117	0.68	enough cells in well	inactive
Rarb	-0.09	enough cells in well	inactive
Uvrag	-0.26	enough cells in well	inactive
Klhl26		fewer than 50 cells per well; well left out of calls	inactive
Prr11	-0.88	enough cells in well	inactive
Nphs1	0.59	enough cells in well	inactive
Itgax	-0.4	enough cells in well	inactive
Nr1d2	-0.82	enough cells in well	inactive
2610524H06Rik		fewer than 50 cells per well; well left out of calls	inactive
Mrpl55	0.52	enough cells in well	inactive
Fnbp4	0.28	enough cells in well	inactive
Eif3h	-0.3	enough cells in well	inactive
Gnaz	-0.76	enough cells in well	inactive
Rnf128	-0.41	enough cells in well	inactive
Cd200r1	0.21	enough cells in well	inactive
Gbp8		fewer than 50 cells per well; well left out of calls	inactive
Hnrnpa3	2.85	enough cells in well	inactive
Zfat	0.63	enough cells in well	inactive
Gdpd3	-0.71	enough cells in well	inactive
Sval2	2.41	enough cells in well	inactive
Mrpl48	1.03	enough cells in well	inactive
Dnm2	-1.66	enough cells in well	active
Atp2a3	0.7	enough cells in well	inactive
Or52a5	0.67	enough cells in well	inactive
Arhgef40	0.32	enough cells in well	inactive
Tmem201	-0.1	enough cells in well	inactive
Xdh	-0.56	enough cells in well	inactive
Rab1a	-0.35	enough cells in well	inactive
Myo1b	-1.17	enough cells in well	inactive
Slc46a2	-0.3	enough cells in well	inactive
Cux2	-0.98	enough cells in well	inactive
Gba2	-0.28	enough cells in well	inactive
Irak4	-1.14	enough cells in well	inactive
Or13l2	-0.36	enough cells in well	inactive
Fmn1	0.55	enough cells in well	inactive
C030016D13Rik	-0.22	enough cells in well	inactive
Or5aq1b	1.87	enough cells in well	inactive
Nme2	-0.84	enough cells in well	inactive
R3hcc1l	2.88	enough cells in well	inactive
Ints12	-0.38	enough cells in well	inactive
